Results are given in words; binding and its absence hold for the method and conditions named. In cells and extracts the contact can be indirect. These calls come from enrichment with a bait or labelling near it, and not all partners need be listed. For some of these results: A no says only that the protein was not detected with the bait. Blank lines part the entries; values can stand above or below the substance they belong to.
Experiments:
[1] = molecular target: RVB1 (S. pombe) (S. pombe) (UniProt Q9C0X6); assay: affinity purification with mass spectrometry; TAP of baits TAP-tagged at their genes from S. pombe extracts; eluates on 6-18% gels, Coomassie, bands and slices identified by MALDI peptide mapping and LC-MS/MS; common background removed, A-index cut-off 1.75
[2] = molecular target: T1, IES6 (S. pombe) (S. pombe) (UniProt Q9UTE8); assay: as above
T1 sequence: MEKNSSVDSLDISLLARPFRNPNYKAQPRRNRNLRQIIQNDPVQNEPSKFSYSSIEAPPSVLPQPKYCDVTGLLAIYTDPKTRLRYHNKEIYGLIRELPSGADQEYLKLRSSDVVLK

Amino acid sequences for entries named in this document (tags omitted). A change or cut given only in a name is not applied to a line headed by its entry.
UniProt Q9C0X6: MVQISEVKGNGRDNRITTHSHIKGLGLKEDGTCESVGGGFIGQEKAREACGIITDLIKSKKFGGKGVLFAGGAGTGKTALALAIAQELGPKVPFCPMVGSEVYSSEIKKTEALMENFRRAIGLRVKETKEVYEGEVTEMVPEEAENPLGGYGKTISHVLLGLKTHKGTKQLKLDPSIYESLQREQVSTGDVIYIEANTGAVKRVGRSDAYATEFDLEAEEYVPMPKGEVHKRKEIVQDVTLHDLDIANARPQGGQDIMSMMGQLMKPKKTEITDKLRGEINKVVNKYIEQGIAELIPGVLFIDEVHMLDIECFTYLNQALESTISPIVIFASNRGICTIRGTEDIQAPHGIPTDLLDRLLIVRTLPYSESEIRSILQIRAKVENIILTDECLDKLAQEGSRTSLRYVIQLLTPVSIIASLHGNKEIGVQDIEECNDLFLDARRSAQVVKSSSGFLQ
UniProt P48003: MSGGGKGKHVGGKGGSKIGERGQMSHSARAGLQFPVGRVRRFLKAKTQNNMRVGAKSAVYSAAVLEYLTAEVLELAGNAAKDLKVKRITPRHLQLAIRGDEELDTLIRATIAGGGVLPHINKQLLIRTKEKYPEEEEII
UniProt Q9US07: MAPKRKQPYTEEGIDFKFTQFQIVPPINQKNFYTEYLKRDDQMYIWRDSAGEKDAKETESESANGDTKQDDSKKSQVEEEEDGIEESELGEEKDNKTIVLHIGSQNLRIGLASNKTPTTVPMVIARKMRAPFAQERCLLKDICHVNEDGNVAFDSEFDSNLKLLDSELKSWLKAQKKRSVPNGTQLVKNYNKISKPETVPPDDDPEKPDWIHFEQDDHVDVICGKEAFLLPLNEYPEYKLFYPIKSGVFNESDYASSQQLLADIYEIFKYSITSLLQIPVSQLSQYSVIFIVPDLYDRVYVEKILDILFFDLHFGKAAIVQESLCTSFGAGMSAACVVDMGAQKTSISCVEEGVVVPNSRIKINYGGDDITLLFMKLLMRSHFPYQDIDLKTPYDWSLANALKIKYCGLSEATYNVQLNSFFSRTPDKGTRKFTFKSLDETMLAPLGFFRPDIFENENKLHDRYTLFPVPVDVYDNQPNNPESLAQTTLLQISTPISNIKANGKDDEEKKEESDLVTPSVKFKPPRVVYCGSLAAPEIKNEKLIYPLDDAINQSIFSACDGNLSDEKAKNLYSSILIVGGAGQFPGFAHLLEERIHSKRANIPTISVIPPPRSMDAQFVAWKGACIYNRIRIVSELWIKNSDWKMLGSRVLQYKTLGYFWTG
UniProt Q10064: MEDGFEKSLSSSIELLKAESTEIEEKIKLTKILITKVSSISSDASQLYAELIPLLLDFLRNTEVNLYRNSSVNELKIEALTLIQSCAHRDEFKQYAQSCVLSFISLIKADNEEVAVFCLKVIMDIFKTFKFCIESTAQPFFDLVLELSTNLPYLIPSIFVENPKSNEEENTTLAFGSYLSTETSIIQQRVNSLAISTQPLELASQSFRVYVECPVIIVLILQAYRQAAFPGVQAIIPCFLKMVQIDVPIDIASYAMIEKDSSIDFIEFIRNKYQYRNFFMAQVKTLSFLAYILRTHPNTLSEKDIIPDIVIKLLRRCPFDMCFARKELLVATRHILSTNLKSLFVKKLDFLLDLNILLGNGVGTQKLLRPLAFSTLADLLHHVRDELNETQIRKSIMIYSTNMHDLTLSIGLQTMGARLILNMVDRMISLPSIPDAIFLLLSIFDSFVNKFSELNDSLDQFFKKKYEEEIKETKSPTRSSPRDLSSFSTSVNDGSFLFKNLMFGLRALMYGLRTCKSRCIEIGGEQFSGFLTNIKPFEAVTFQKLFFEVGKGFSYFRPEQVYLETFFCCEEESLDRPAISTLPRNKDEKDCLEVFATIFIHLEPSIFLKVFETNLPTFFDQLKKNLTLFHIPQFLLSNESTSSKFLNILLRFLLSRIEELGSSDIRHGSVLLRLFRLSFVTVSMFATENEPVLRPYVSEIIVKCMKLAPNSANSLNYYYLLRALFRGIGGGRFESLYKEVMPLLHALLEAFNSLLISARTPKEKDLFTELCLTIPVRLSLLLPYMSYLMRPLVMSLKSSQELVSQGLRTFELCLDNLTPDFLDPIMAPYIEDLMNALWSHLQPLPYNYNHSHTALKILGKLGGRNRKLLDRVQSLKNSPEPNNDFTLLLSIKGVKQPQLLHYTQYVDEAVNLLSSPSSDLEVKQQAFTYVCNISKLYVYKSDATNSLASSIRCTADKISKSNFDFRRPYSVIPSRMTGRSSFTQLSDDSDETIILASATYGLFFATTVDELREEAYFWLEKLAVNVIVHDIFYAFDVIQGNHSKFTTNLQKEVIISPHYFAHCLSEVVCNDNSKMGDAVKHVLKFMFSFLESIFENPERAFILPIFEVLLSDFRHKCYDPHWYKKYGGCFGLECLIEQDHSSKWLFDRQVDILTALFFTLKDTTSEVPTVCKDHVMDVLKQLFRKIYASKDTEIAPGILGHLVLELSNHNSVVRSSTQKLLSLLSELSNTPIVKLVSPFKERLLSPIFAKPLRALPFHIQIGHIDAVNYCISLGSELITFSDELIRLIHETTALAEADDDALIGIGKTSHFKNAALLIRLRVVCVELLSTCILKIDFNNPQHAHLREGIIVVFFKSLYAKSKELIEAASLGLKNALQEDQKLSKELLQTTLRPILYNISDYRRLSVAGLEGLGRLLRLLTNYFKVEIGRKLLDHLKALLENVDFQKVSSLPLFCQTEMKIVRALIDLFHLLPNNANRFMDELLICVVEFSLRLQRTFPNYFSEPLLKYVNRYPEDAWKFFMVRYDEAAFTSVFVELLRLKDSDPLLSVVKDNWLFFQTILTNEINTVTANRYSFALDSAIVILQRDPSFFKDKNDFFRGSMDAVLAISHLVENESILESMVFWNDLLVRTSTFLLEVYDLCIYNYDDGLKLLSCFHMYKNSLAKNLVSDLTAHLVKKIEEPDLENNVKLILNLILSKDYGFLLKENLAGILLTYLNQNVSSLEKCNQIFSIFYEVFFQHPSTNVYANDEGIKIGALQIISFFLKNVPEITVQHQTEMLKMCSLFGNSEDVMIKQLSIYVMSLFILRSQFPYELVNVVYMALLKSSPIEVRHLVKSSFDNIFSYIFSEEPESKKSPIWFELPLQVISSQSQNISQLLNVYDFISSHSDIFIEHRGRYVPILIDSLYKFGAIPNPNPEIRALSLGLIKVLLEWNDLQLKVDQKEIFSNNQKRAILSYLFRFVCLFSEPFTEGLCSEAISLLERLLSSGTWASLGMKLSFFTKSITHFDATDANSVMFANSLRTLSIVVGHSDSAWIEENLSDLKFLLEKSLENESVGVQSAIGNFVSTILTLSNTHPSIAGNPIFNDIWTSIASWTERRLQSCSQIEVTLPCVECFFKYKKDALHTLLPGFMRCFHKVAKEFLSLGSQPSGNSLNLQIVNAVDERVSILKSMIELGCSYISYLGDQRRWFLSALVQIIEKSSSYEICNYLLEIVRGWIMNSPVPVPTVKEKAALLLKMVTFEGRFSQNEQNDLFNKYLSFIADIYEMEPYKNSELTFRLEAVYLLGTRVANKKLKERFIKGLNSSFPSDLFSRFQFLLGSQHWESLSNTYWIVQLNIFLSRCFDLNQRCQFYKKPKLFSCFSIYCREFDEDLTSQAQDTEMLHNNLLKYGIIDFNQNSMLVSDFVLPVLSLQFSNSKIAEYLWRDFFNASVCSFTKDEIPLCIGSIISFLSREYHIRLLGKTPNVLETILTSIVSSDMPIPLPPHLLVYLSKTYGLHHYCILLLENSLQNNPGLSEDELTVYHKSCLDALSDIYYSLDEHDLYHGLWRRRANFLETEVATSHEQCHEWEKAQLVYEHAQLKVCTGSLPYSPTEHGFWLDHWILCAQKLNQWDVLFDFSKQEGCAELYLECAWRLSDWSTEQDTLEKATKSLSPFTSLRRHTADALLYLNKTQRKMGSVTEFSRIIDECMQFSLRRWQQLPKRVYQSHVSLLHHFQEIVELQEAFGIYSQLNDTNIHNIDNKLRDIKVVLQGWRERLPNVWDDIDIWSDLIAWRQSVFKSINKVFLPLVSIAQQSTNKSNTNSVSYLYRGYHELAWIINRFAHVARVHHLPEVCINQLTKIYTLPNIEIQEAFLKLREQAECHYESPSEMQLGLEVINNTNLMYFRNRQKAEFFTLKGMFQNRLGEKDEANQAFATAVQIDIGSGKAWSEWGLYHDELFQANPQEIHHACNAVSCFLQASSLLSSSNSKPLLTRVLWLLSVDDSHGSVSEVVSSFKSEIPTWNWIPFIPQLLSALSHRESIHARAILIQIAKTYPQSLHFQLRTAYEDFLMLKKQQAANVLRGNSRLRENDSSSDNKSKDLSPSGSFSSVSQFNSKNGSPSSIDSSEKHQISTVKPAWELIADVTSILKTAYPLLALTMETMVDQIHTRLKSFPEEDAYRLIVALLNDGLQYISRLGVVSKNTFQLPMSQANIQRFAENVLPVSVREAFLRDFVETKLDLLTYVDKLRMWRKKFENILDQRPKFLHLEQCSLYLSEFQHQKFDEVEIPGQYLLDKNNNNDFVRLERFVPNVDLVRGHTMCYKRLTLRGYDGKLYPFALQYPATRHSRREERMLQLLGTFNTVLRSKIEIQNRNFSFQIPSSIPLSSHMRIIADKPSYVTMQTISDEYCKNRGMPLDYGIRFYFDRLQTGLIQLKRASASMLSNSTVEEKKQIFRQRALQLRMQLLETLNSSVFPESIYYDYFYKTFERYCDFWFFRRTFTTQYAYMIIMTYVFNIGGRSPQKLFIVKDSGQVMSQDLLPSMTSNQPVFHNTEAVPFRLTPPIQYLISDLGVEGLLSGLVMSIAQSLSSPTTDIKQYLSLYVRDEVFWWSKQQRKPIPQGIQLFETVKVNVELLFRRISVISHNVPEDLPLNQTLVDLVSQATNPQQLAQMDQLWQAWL
UniProt Q9UT79: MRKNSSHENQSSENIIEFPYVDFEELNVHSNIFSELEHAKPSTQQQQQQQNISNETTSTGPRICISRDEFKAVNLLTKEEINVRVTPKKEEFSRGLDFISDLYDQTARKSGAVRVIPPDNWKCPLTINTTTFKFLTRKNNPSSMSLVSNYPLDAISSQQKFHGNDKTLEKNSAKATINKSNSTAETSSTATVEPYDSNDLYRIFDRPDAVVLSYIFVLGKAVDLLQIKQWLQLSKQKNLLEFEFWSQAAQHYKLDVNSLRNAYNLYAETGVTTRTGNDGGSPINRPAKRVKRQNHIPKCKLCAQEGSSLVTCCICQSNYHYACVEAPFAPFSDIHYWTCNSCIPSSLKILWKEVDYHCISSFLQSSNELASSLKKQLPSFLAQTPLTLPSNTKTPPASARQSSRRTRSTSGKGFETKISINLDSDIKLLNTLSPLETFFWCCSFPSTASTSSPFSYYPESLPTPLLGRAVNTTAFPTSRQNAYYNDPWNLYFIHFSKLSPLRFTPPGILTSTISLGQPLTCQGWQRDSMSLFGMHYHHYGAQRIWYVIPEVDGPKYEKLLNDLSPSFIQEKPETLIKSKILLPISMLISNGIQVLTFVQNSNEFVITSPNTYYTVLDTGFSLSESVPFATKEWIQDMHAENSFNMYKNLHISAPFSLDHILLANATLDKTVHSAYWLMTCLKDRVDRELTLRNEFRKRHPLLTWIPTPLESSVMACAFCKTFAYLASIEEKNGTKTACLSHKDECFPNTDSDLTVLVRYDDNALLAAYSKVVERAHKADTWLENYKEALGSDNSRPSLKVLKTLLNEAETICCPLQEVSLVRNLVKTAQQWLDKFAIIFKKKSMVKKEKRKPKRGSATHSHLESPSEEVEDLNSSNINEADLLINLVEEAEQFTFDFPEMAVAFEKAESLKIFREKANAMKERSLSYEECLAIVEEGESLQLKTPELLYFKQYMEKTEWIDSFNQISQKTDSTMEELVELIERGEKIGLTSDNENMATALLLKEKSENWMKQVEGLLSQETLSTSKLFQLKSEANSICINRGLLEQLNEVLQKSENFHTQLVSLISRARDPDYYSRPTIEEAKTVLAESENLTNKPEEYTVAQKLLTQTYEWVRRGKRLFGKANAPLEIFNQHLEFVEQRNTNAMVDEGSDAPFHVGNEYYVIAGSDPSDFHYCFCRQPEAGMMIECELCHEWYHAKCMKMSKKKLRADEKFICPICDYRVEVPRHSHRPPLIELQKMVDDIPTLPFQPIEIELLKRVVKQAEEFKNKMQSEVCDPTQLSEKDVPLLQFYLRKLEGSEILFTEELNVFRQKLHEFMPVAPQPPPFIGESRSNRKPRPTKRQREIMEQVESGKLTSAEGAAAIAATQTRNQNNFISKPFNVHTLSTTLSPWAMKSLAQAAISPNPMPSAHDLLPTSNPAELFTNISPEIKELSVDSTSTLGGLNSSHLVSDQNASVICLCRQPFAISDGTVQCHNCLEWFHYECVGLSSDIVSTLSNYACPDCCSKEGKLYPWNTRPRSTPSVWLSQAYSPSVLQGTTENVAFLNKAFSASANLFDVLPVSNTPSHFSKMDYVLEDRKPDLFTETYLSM

[3] = molecular target: T2, SWC4 (S. pombe) (S. pombe) (UniProt O14308); assay: as above
T2 sequence: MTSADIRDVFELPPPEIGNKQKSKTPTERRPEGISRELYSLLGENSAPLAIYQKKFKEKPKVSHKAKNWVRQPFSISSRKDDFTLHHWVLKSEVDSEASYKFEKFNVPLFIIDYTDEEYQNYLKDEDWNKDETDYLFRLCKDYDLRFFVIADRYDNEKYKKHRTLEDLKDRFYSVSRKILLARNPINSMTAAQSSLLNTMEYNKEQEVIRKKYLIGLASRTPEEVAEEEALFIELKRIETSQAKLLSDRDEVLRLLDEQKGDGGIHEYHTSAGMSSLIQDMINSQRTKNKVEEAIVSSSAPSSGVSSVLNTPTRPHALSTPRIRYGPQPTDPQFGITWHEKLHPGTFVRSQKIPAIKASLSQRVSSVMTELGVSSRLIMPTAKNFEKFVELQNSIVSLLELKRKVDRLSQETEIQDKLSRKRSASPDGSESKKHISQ

[4] = molecular target: T3, YAF9 (S. pombe) (S. pombe) (UniProt Q10319); assay: as above
T3 sequence: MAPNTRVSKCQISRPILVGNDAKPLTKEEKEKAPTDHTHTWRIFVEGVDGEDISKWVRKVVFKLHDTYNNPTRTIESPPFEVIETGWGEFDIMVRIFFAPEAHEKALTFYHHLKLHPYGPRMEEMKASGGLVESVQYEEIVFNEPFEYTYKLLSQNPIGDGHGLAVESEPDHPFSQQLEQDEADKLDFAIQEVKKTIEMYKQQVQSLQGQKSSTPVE

Sp_Alp13p (S. pombe) = molecular target: T4, Sp_Alp13p (S. pombe) (UniProt O13953); assay: as above
T4 sequence: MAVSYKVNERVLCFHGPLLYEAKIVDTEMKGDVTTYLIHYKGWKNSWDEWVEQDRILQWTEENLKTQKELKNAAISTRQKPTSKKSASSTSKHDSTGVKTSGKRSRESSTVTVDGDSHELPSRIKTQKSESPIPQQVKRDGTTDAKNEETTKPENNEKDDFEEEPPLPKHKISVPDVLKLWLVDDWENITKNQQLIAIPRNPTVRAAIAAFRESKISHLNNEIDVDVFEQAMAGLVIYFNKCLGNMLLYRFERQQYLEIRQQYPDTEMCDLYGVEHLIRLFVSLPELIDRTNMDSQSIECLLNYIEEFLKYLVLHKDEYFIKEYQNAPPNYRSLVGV

Sp_Set3p (S. pombe) = molecular target: T5, Sp_Set3p (S. pombe) (UniProt Q10362); assay: as above
T5 sequence: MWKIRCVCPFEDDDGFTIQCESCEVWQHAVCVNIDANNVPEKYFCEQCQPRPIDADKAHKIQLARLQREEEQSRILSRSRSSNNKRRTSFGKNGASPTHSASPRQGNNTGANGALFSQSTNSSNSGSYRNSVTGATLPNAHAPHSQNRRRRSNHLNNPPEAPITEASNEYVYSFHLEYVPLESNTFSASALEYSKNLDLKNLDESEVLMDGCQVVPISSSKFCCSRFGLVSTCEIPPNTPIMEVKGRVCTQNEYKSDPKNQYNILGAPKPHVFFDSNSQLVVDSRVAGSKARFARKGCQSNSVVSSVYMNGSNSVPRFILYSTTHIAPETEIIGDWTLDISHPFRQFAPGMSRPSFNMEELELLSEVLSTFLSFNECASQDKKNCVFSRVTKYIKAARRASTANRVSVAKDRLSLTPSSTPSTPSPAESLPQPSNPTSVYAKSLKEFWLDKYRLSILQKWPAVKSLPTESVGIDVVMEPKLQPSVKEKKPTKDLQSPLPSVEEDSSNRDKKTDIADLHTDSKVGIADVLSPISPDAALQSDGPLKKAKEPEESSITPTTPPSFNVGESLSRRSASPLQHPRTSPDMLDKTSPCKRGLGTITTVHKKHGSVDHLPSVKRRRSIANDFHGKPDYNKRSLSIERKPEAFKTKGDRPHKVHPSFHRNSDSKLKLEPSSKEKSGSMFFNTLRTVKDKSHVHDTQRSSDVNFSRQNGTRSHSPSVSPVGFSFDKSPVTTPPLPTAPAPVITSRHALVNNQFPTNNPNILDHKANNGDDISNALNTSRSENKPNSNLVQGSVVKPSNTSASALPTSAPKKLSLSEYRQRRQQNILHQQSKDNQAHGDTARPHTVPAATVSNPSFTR

[5] = molecular target: T6, SWC2 (S. pombe) (S. pombe) (UniProt Q9P790); assay: as above
T6 sequence: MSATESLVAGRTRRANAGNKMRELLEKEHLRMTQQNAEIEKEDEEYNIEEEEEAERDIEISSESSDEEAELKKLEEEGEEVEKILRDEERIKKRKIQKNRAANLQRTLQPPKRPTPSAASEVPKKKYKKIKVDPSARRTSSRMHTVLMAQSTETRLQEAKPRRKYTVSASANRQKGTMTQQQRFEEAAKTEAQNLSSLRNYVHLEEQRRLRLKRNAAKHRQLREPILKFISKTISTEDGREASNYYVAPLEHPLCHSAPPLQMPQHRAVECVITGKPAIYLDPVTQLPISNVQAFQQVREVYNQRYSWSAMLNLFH

Sc_Tos4p (S. cerevisiae) = molecular target: T7, Sc_Tos4p (S. cerevisiae) (UniProt Q06266); assay: affinity purification with mass spectrometry; TAP of baits TAP-tagged at their genes from S. cerevisiae extracts; eluates on 6-18% gels, Coomassie, bands and slices identified by MALDI peptide mapping and LC-MS/MS; common background removed, A-index cut-off 1.75
T7 sequence: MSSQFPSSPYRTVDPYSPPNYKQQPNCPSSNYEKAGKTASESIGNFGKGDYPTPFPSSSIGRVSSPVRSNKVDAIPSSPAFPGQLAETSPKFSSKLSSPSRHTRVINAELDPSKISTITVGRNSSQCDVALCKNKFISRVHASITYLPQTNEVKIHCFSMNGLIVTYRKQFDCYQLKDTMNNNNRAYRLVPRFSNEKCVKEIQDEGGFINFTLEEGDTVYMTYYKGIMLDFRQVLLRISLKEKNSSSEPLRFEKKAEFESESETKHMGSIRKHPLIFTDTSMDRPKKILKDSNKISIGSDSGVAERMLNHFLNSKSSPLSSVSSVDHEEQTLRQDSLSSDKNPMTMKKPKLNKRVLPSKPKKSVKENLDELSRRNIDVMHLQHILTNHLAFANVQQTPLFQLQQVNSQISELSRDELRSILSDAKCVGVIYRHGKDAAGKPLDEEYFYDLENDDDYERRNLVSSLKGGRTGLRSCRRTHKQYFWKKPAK

[6] = molecular target: T8, Clr6p (S. pombe) (S. pombe) (UniProt O59702); assay: affinity purification with mass spectrometry; TAP of baits TAP-tagged at their genes from S. pombe extracts; eluates on 6-18% gels, Coomassie, bands and slices identified by MALDI peptide mapping and LC-MS/MS; common background removed, A-index cut-off 1.75
T8 sequence: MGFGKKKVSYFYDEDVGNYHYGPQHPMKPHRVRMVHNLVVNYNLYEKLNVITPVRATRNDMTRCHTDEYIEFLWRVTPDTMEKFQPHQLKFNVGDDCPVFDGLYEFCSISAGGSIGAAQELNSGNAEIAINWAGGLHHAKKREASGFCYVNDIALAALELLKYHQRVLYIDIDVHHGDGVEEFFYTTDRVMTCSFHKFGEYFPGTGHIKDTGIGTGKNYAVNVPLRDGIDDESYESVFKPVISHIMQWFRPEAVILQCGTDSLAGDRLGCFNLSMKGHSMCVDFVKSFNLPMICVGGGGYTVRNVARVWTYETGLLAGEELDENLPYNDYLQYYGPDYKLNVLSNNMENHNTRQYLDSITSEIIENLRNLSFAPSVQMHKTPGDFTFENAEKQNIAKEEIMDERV

Sp_Png2 (S. pombe) = molecular target: T9, Sp_Png2 (S. pombe) (UniProt O74736); assay: as above
T9 sequence: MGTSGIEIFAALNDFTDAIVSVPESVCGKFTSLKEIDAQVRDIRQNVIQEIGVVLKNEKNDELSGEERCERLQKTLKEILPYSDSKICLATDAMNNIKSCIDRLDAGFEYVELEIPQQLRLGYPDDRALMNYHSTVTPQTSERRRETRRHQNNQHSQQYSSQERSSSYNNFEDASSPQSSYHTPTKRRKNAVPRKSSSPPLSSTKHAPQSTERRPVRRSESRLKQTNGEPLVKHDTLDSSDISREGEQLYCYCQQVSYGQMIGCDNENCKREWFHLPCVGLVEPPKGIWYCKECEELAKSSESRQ

Substance: PNG1 (S. pombe) (from UniProt O42871)
binding [3]: binds | binding [4]: binds | binding (Sp_Alp13p (S. pombe)): binds

Substance: Sp_Hst1 (S. pombe)
binding (Sp_Set3p (S. pombe)): no binding

Substance: Sp_Snt1p (from UniProt Q10369)
binding (Sp_Set3p (S. pombe)): binds

Substance: RVB1 (S. pombe) (from UniProt Q9C0X6 1-456)
binding [3]: binds | binding [5]: binds | binding [4]: binds

Substance: Sp_Pht1p (from UniProt P48003 1-139)
binding [3]: binds | binding [5]: binds | binding [4]: binds | binding [1]: binds | binding [2]: binds

Substance: Sp_Pst1p (from UniProt Q09750 1-1522)
binding (Sp_Png2 (S. pombe)): binds | binding [6]: binds

Substance: Sc_Cph1p (from UniProt P14832 1-162)
binding (Sc_Tos4p (S. cerevisiae)): binds

Substance: Sp_Cph1 (from UniProt Q09819)
binding (Sp_Alp13p (S. pombe)): binds | binding [6]: binds

Substance: ACT1 (S. pombe) (from UniProt P10989 1-375)
binding [5]: binds | binding [4]: binds | binding [1]: binds | binding (Sp_Alp13p (S. pombe)): binds | binding [2]: binds

Substance: NHT1 (S. pombe) (from UniProt O42648)
binding [1]: binds | binding [2]: binds

More lines, now with the values ahead:

binding [1]: binds | binding [2]: binds
Substance: ARP8 (S. pombe) (from UniProt Q9US07)

binding (Sc_Tos4p (S. cerevisiae)): no binding
Substance: Sc_Hst1p (from UniProt P53685 1-503)

binding (Sp_Alp13p (S. pombe)): binds | binding [6]: binds
Substance: Sp_Cph2 (from UniProt Q09698)

binding [3]: binds | binding [4]: binds | binding (Sp_Alp13p (S. pombe)): binds
Substance: Tra2 (S. pombe) (from UniProt Q10064 1-3655)

binding [3]: binds | binding [5]: binds | binding [4]: binds | binding [1]: binds
Substance: Sp_Msc1p (from UniProt Q9UT79 1-1588)

binding [1]: binds
Substance: Tra1 (S. pombe) (from UniProt Q9HFE8 1-3661)

binding (Sp_Png2 (S. pombe)): binds | binding [6]: binds
Substance: Sp_Rxt2p (from UniProt O94355)

— paper PMC2614481
